Laboratory results as given in the supplement of paper PMC12823440, “Inhibitors supercharge kinase turnover through native proteolytic circuits” (Nature, 2025).
Some of the results follow. The calls rarely recur for the same compound in another form.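 In K562 cells expressing nanoluciferase-fused kinases, luminescence was recorded at 4 h intervals between 2 and 18 h, normalized as percent of control with DMSO at 100% and a positive control at 0%. A significant (2 sigma) signal drop marks a time point as decreased. The authors' rule for a hit is not shown and takes in more than the number of time points.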

The chains behind the UniProt entries cited, without tags or fusion partners. Where a name states a change or a piece, a line headed by the entry shows the natural chain unless it says otherwise.
UniProt P29317, whole entry: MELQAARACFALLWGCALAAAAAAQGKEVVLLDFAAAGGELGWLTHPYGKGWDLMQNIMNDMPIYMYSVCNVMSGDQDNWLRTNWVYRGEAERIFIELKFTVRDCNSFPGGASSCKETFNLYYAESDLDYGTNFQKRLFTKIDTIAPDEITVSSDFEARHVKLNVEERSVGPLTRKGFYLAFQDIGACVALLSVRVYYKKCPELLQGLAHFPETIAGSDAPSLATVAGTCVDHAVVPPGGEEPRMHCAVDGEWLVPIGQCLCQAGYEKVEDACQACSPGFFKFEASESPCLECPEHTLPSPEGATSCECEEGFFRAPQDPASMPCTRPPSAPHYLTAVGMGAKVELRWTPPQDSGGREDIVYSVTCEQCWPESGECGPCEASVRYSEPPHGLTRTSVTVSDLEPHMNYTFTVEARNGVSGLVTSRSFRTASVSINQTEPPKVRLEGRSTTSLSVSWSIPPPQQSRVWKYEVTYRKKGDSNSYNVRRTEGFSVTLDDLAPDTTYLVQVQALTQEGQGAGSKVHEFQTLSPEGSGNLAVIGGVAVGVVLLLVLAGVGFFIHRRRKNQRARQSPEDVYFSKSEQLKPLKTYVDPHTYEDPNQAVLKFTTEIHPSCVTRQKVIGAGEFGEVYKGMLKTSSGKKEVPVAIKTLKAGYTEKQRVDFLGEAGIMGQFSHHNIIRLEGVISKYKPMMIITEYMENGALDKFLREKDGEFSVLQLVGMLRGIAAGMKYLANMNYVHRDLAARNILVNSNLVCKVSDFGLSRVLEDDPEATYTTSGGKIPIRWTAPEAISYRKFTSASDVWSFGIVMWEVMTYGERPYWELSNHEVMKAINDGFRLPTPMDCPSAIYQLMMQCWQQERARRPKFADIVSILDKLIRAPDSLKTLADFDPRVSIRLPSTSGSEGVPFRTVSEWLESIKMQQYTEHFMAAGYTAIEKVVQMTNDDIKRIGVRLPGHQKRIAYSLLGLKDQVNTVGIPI
UniProt P11362, whole entry, looked up: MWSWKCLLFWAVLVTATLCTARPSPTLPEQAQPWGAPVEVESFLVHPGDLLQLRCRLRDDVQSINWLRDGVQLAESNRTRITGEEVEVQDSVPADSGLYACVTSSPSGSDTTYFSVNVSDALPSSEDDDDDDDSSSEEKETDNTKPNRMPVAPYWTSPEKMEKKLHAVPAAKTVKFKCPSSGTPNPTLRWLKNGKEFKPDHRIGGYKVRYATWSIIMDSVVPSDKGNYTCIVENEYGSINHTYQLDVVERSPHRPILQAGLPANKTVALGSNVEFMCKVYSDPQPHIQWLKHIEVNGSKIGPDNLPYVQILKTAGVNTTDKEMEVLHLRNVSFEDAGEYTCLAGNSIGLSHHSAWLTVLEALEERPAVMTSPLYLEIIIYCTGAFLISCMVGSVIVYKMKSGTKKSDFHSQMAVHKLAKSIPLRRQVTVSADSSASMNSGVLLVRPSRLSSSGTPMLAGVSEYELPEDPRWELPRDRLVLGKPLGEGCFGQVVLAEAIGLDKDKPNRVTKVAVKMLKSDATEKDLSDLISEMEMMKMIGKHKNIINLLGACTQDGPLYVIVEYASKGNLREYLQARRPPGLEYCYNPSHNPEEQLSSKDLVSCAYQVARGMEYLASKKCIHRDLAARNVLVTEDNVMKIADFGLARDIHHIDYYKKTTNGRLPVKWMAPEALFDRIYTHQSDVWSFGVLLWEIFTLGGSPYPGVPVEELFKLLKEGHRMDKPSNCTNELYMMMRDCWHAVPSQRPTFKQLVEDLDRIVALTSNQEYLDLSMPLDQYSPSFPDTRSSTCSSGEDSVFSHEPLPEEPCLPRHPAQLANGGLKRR
UniProt P36888, whole entry: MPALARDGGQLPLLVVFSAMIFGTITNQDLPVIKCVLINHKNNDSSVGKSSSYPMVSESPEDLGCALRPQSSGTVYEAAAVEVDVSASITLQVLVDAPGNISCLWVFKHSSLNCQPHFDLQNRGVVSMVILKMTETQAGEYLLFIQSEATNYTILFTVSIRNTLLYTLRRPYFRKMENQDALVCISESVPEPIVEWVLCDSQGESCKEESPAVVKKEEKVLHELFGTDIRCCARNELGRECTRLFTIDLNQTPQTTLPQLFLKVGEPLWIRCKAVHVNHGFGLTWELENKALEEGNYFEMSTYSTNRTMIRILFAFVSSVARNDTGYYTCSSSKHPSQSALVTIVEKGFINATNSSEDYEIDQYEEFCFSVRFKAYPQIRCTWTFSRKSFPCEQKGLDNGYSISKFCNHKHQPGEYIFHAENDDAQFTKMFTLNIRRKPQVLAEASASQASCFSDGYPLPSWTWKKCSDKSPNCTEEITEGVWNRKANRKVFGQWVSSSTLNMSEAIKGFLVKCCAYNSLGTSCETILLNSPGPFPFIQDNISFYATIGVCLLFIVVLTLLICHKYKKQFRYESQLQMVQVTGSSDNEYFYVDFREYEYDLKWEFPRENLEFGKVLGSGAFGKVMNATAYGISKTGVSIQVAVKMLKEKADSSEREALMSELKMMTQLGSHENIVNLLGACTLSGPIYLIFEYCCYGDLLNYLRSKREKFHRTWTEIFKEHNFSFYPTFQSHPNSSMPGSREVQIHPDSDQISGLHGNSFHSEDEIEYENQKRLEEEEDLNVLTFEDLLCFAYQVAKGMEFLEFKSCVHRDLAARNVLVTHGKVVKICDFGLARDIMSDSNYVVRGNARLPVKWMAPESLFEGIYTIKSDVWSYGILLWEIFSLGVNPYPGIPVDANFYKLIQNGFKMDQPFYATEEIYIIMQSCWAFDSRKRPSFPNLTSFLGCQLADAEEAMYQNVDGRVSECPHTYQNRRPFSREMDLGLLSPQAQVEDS
UniProt P06241, whole entry, looked up: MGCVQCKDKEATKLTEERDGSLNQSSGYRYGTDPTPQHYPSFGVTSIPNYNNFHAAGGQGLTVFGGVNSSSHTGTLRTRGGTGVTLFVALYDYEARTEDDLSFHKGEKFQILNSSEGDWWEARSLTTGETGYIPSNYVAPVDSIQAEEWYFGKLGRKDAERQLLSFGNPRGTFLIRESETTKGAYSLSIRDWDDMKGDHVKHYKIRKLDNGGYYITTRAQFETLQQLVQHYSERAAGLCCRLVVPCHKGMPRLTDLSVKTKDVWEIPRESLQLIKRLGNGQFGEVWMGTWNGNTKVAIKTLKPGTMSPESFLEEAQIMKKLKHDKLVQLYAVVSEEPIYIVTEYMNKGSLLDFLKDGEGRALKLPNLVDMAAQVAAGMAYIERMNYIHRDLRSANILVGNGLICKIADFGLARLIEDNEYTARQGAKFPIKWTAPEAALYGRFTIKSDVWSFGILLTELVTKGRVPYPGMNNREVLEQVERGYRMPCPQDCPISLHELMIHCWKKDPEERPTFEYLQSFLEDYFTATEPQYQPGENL
UniProt P49840: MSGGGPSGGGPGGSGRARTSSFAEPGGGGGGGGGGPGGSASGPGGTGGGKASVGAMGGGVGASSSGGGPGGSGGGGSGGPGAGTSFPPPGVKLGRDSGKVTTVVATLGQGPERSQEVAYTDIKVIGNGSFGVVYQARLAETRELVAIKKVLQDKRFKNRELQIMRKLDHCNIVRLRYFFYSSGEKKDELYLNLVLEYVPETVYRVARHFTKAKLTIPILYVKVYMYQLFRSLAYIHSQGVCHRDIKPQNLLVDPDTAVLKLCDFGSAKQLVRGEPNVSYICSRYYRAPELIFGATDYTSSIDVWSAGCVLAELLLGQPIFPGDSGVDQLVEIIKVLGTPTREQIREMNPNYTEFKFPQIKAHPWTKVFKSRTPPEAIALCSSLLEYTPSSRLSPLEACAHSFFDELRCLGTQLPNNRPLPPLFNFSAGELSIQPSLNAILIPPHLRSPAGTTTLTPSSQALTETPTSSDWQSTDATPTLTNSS
UniProt Q9Y616: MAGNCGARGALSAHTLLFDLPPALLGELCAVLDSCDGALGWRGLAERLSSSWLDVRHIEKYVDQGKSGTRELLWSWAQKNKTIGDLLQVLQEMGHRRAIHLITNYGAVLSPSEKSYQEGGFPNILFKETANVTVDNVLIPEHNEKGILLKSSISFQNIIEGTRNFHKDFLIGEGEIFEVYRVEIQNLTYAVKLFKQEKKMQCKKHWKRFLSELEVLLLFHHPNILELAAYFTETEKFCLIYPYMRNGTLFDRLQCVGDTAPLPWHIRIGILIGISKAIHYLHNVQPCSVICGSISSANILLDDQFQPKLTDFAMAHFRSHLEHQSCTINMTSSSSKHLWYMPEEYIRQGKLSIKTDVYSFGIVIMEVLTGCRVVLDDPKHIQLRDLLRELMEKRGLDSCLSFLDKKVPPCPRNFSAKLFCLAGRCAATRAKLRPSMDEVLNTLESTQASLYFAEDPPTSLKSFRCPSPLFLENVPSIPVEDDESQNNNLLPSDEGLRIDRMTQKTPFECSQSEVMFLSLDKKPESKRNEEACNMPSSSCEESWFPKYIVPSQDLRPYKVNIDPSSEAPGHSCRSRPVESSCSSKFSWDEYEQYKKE
UniProt P23458: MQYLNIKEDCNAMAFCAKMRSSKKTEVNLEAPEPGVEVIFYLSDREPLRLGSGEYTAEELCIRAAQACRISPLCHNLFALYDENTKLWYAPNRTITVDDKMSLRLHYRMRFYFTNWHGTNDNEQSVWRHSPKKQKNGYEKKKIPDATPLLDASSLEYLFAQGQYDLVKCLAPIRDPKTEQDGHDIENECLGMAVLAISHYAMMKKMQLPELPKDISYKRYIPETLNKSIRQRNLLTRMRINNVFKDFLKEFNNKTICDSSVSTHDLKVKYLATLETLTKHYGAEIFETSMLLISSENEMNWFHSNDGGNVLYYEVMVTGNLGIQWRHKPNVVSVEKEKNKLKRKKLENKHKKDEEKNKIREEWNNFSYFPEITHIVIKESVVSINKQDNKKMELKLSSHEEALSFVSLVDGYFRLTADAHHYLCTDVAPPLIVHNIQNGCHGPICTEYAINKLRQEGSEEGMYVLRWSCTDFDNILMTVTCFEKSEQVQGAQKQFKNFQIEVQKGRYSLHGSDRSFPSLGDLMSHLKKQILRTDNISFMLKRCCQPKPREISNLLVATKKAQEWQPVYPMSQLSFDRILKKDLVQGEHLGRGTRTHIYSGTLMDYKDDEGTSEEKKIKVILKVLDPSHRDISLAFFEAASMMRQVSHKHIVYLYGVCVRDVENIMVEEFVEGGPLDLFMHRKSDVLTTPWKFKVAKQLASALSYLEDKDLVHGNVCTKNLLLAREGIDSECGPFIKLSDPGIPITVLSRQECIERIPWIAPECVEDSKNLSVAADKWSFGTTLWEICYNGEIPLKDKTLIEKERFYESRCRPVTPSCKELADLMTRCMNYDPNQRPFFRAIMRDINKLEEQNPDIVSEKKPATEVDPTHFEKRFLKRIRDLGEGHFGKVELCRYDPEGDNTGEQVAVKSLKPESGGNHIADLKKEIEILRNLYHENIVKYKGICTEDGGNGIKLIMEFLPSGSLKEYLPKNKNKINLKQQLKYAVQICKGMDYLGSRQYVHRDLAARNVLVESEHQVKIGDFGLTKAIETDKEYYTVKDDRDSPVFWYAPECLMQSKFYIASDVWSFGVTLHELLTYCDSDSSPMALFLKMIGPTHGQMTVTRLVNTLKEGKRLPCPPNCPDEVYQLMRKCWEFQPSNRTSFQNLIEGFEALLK
UniProt P53667: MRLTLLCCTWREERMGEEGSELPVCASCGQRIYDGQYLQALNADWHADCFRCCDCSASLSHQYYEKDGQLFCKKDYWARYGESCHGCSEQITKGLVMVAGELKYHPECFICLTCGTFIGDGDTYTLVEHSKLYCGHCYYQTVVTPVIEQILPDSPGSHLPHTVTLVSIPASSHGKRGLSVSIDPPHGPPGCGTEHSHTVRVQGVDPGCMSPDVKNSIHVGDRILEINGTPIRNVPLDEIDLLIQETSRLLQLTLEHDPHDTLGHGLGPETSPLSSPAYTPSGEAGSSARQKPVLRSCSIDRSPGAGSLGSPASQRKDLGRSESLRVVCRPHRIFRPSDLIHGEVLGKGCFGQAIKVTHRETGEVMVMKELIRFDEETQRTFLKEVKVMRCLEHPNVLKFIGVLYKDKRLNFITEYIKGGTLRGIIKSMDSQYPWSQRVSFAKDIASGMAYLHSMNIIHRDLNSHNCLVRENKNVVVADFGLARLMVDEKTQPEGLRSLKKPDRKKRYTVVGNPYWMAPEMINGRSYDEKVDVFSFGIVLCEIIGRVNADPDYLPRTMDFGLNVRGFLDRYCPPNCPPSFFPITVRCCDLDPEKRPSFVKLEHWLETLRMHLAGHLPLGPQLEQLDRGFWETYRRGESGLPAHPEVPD

Assays:
Assay in all cases: number of time points (of 5) at which kinase-Nluc abundance scored as decreased, DMSO-normalised (count); higher = more persistent destabilization
Details in all cases: K562; 2-18 h
EGFR_L861Q = EGFR_L861Q (UniProt P00533)
EGFR_T790M = EGFR_T790M (UniProt P00533)
EPHA2 = EPHA2 (UniProt P29317)
ERBB3 = ERBB3 (UniProt P21860)
[1] = molecular target: ERBB4_R711C (clone: ERBB4_mut) (UniProt Q15303)
ERN1 = ERN1 (UniProt O75460)
FGFR1 = FGFR1 (UniProt P11362)
FGFR2 = FGFR2 (UniProt P21802)
FGFR3 = FGFR3 (UniProt P22607)
FGR = FGR (UniProt P09769)
FLT3 = FLT3 (UniProt P36888)
FYN = FYN (UniProt P06241)
GSK3A = GSK3A (UniProt P49840)
HER2 = HER2 (UniProt P04626)
INSRR = INSRR (UniProt P14616)
IRAK3 = IRAK3 (UniProt Q9Y616)
JAK1 = JAK1 (UniProt P23458)
LCK = LCK (UniProt P06239)
LIMK1 = LIMK1 (UniProt P53667)
LIMK2 = LIMK2 (UniProt P53671)

Measured: number of time points

CN1CCN(c2cc(-c3ccncc3)c(-c3ccc4ccccc4c3)nn2)CC1 (10 µM)
0: EGFR_L861Q | EGFR_T790M | EPHA2 | ERBB3 | [1] | ERN1 | FGFR1 | FGFR2 | FGFR3 | FGR | FLT3 | FYN | GSK3A | HER2 | INSRR | IRAK3 | JAK1 | LCK | LIMK1 | LIMK2

COc1ccc2c(Oc3ccc4c(C(=O)Nc5ccccc5N)cccc4c3)ccnc2c1 [Chiauranib] (10 µM)
1: FGFR2
4: HER2
0: EGFR_L861Q | EGFR_T790M | EPHA2 | ERBB3 | [1] | ERN1 | FGFR1 | FGFR3 | FGR | FLT3 | FYN | GSK3A | INSRR | IRAK3 | LCK
3: JAK1 | LIMK1 | LIMK2

N#Cc1ccc(-c2cnc3ccc(-c4ccc(C(=O)N5CCOCC5)cc4)cn23)cc1 (10 µM)
0: EGFR_L861Q | EGFR_T790M | EPHA2 | ERBB3 | [1] | ERN1 | FGFR1 | FGFR2 | FGFR3 | FGR | FLT3 | FYN | GSK3A | HER2 | INSRR | IRAK3 | JAK1 | LCK | LIMK1 | LIMK2

COC(=O)/C=C/c1ccccc1 [Methyl cinnamate] (10 µM)
0: EGFR_L861Q | EGFR_T790M | EPHA2 | ERBB3 | [1] | ERN1 | FGFR1 | FGFR2 | FGFR3 | FGR | FLT3 | FYN | GSK3A | HER2 | INSRR | IRAK3 | JAK1 | LCK | LIMK1 | LIMK2

C=CC(=O)N1CCC[C@@H](n2nc(-c3ccc(Oc4ccccc4)cc3)c3c(N)n[nH]c(=O)c32)C1 [BTK inhibitor 17] (10 µM)
0: EGFR_L861Q | EGFR_T790M | EPHA2 | ERBB3 | [1] | ERN1 | FGFR1 | FGFR2 | FGFR3 | FGR | FLT3 | FYN | GSK3A | HER2 | INSRR | IRAK3 | JAK1 | LCK | LIMK1 | LIMK2

COc1cc2c(cc1OC)/C(=C/c1ccc(O)cc1)C(=O)N2 (10 µM)
0: EGFR_L861Q | EGFR_T790M | EPHA2 | ERBB3 | [1] | ERN1 | FGFR1 | FGFR2 | FGFR3 | FGR | FLT3 | FYN | GSK3A | HER2 | INSRR | IRAK3 | JAK1 | LCK | LIMK1 | LIMK2

Cn1cc(-c2cc(Oc3cc(F)c(NC(=O)C4(C(=O)Nc5ccccc5)CC4)cc3F)ccn2)cn1 (2.5 µM)
0: EGFR_L861Q | EGFR_T790M | EPHA2 | ERBB3 | [1] | ERN1 | FGFR1 | FGFR2 | FGFR3 | FGR | FLT3 | FYN | GSK3A | HER2 | INSRR | IRAK3 | JAK1 | LCK | LIMK1 | LIMK2

O=C(ON=C1c2ccccc2-c2nc3ccccc3nc21)c1ccco1 (2.5 µM)
0: EGFR_L861Q | EGFR_T790M | EPHA2 | ERBB3 | [1] | ERN1 | FGFR1 | FGFR2 | FGFR3 | FGR | FLT3 | FYN | GSK3A | HER2 | INSRR | IRAK3 | JAK1 | LCK | LIMK1 | LIMK2

Fc1ccc2[nH]ccc2c1-c1nc(N2CCOCC2)c2sc(CN3CCN(CC4CC4)CC3)cc2n1 (10 µM)
0: EGFR_L861Q | EGFR_T790M | EPHA2 | ERBB3 | [1] | ERN1 | FGFR1 | FGFR2 | FGFR3 | FGR | FLT3 | FYN | GSK3A | HER2 | INSRR | IRAK3 | JAK1 | LCK | LIMK1 | LIMK2

C[C@@H]1O[C@@H](Oc2cc(O)c3c(=O)c(O[C@@H]4O[C@@H](C)[C@H](O)[C@@H](O)[C@H]4O)c(-c4ccc(O)cc4)oc3c2)[C@H](O)[C@H](O)[C@H]1O [Kaempferitrin] (10 µM)
0: EGFR_L861Q | EGFR_T790M | EPHA2 | ERBB3 | [1] | ERN1 | FGFR1 | FGFR2 | FGFR3 | FGR | FLT3 | FYN | GSK3A | HER2 | INSRR | IRAK3 | JAK1 | LCK | LIMK1 | LIMK2

c1nc2c(NC3CCCCC3)nc(Nc3ccc(N4CCOCC4)cc3)nc2[nH]1 [Reversine] (10 µM)
1: ERBB3 | FGFR1
0: EGFR_T790M | EPHA2 | [1] | ERN1 | FGFR2 | FGFR3 | FGR | FLT3 | FYN | GSK3A | HER2 | INSRR | IRAK3 | JAK1 | LCK | LIMK2
2: EGFR_L861Q
4: LIMK1
